Consider one molecule from PMC5103296.

This assay deals with GST-PDZ2 (syntenin-1 PDZ2 domain). Briefly: pull-down; purified GST-PDZ2 or mutants incubated with biotinylated 4L for 2 hr; bound material detected by immunoblotting with anti-biotin antibody; both purified. A general note: Immunoblotting shows a protein as a band on a membrane.

These are yes or no findings as the source states them, for the method shown. Binding calls can cover weak binding; strength is not graded here.

Turning to RMKKKDEGSYDLGKKPIYKKAPTNEFYA (biotin (Mini-biotin-XX protein labeling kit), site not stated) [biotinylated syndecan-4 cytoplasmic domain peptide (biotinylated 4L)], the binding result is on record as “binds”.
